Measured values: PubChem BioAssay AID504467 (National Center for Advancing Translational Sciences (NCATS), 2011)
Hit rate of the full screen: of about 330,000 compounds, about 7,700 (2.3%) were called active. The shares of active, inactive and inconclusive entries below differ from those in the screen. Calls follow the shape of the dose curve; as a rule, active = well fitted inhibition curve with a large enough effect; inconclusive = small, poorly fitted or top-dose-only effect, or effect the other way; inactive = flat fitted curve, though single readings scatter. Potencies of inconclusive entries are doubtful fits and often do not repeat.

assay: qHTS screen for small molecules that inhibit ELG1-dependent DNA repair in human embryonic kidney (HEK293T) cells expressing luciferase-tagged ELG1; conditions: HEK293T ELG1-luciferase reporter, luminescence, 16 h, DNA damage induced by 5-fluorouridine; activity change, negative = inhibition: at 46.1 µM (top of the series); also: nearly all actives have a fitted effect of over 55% in size
Summary of the method: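 Luminescence from the luciferase reporter, measured 30 min after ONE-Glo reagent at room temperature, was the read-out. Beforehand, 2,000 cells per well were exposed for 16 hr at 37 °C to 5-fluorouridine together with compound or vehicle.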
% is scaled to controls: 0 for no effect and ±100 for the full control effect; potency is read from the fitted curve at half-maximal effect.

| Compound | Potency | activity change, negative = inhibition |
| --- | --- | --- |
| Cn1nc2c3ccccc3n(Cc3ccccc3)c2nc1=S | inconclusive: 18.3 µM [activator, partial curve] |  |
| O=C(NC(=O)c1ccccc1)NC1(C(F)(F)F)OCCO1 | inconclusive: 7.31 µM [activator, partial curve] |  |
| NC(=O)C1CCN(C(=O)CSCc2ccccc2Cl)CC1 |  | inactive: 23.9% |
| CCOC(=O)c1sc(NC(=O)CSc2nc(C)cc(-c3ccccc3)n2)c(C#N)c1C |  | inactive: 22.9% |
| O=[N+]([O-])c1ccc(N/N=C/c2cccc(O)c2)cc1 | inconclusive: 16.4 µM [activator, partial curve] |  |
| COc1ccccc1OCC(=O)Nc1ccccn1 | inconclusive: 1.84 µM [activator, partial curve] |  |
| Cc1occc1-c1nnc(SCC(=O)Nc2ccccc2)n1C |  | inactive: -7.21% |
| O=S(=O)(c1ccc(-n2cnnn2)cc1)N1CCN(c2ccccc2F)CC1 | inconclusive: 1.46 µM [activator, full curve] |  |
| O=C(N/N=C/c1cnc2ccccc2n1)c1cccc(F)c1 | inconclusive: 11.6 µM [activator, partial curve] |  |
| CCC(=O)Nc1cccc(NC(=O)c2ccc(C)c([N+](=O)[O-])c2)c1 |  | inactive: 0.0198% |
| O=c1cc(C(F)F)oc2c1ccc1ccccc12 | inconclusive: 5.8 µM [inhibitor, full curve] |  |
| Cc1cc(OCC(=O)NNC(=O)c2cnccn2)cc(C)c1Cl |  | inactive: -11.9% |
| O=C(COc1ccc(Cl)cc1Br)NCC(c1ccco1)N1CCCC1 (stereo not drawn) | inconclusive: 16.4 µM [activator, single point] |  |
| CC(=O)c1ccc(N2CCN(C(=O)c3ccc(Cn4c(=S)[nH]c5ccc(N6CCOCC6)cc5c4=O)cc3)CC2)cc1 | inconclusive: 2.06 µM [inhibitor, full curve] |  |
| Cc1cc(C)cc(OCC(=O)OC/C(O)=C(\C#N)c2nc3ccccc3[nH]2)c1 | inconclusive: 20.6 µM [activator, partial curve, poor fit] |  |
| CCN(CC(=O)Nc1ccccc1C(F)(F)F)C(=O)c1ccc2[nH]c3c(c2c1)CC(C)CC3 (stereo not drawn) | inconclusive: 25.9 µM [inhibitor, single point] |  |
| COc1ccc(C(=O)NC2CCCc3ccccc32)c(OC)c1OC (stereo not drawn) |  | inactive: -23.3% |
| CCOc1ccc2c(c1)C(=O)c1cc(OCC(=O)O)ccc1-2 | inconclusive: 29.1 µM [activator, single point] |  |
| O=C(c1ccc(F)cc1F)N1CCCC(c2nc(-c3ccc(F)cc3)no2)C1 (stereo not drawn) | inconclusive: 12.6 µM [inhibitor, partial curve, poor fit] |  |
| CCN(CC)S(=O)(=O)c1ccc(C(=O)NCCOC(=O)c2ccc(F)cc2F)cc1 |  | inactive: 0% |
| O=C(c1ccccc1)N1CCN(CC#Cc2ccccc2)CC1 | inconclusive: 23.1 µM [activator, partial curve, poor fit] |  |
| O=C(CCSCCC(=O)Nc1ccccc1F)Nc1ccccc1F |  | inactive: 6.78% |
| Cc1onc(-c2c(F)cccc2Cl)c1C(=O)NCCO |  | inactive: 10.4% |

| Compound | Potency | activity change, negative = inhibition |
| --- | --- | --- |
| CC(=O)N1CCC2(CC1)C/C(=N\NC(=S)Nc1ccc(C)cc1)c1cc(O)ccc1O2 |  | inactive: -8.06% |
| COc1ccc(NC(=S)Nc2ccc(Oc3ccccc3)cc2)cc1 | inconclusive: 29.1 µM [inhibitor, partial curve, poor fit] |  |
| CC(C)CC(=O)NC(NC(=S)Nc1sc2c(c1C#N)CCCC2)C(Cl)(Cl)Cl (stereo not drawn) |  | inactive: -0.635% |
| C=CCN(C(=O)CCS(=O)(=O)c1cccc2nsnc12)c1ccccc1 | inconclusive: 6.51 µM [activator, partial curve, poor fit] |  |
| O=C(N/N=C/c1nn(-c2ccccc2)cc1-c1ccccc1)c1ccncc1 | inconclusive: 20.6 µM [activator, partial curve, poor fit] |  |
| CCc1nc(Nc2cccc(F)c2)c2oc3ccccc3c2n1 |  | inactive: -10.9% |
| CC(=O)c1ccc(N2CCN(CN3C(=O)CC4(CCCC4)C3=O)CC2)c(F)c1 |  | inactive: 24.1% |
| CN(C)C(CNC(=O)c1ccc(-c2ccccc2)cc1)c1ccccc1 (stereo not drawn) | inconclusive: 16.4 µM [activator, partial curve, poor fit] |  |
| Cc1ccc(S(=O)(=O)N2CCN(CC(=O)NC3CCCc4ccccc43)CC2)c(C)c1 (stereo not drawn) | inconclusive: 20.6 µM [inhibitor, single point] |  |
| O=C(CCl)N(CCc1ccccc1)CCc1ccccc1 | inconclusive: 9.2 µM [inhibitor, partial curve, poor fit] |  |
| CCOc1ccc(C(=O)CC(NCc2cccs2)C(=O)O)cc1 (stereo not drawn) |  | inactive: 7.73% |
| CCc1[nH]nc(C(=O)N/N=C/c2ccncc2)c1C | inconclusive: 14.6 µM [activator, partial curve] |  |
| Nn1c(SCC(=O)Nc2ccccc2F)nnc1-c1cccs1 |  | inactive: 7.28% |
| COC(=O)c1cccc(COC(=O)c2ccc(N(C)C)cc2)c1 | inconclusive: 23.1 µM [activator, single point] |  |
| COC(=O)CN1C(=O)S/C(=C/c2cc(C)n(C)c2C)C1=O | inconclusive: 16.4 µM [activator, partial curve] |  |
| O=C(CN1CCN(c2ccccc2F)CC1)c1ccc2c(c1)OCO2 | inconclusive: 20 µM [activator, single point] |  |
| CC(C)[C@H](NC(=O)c1ccccc1Cl)C(=O)Nc1nc(-c2ccccn2)cs1 | inconclusive: 4.61 µM [inhibitor, single point] |  |
| O=C(CC1CCCC1)Nc1ccc2c(c1)CCC2 | inconclusive: 18.4 µM [activator, partial curve] |  |
| CN1Cc2sc(NC(=S)NC(=O)c3ccccc3)c(C#N)c2CC1(C)C | inconclusive: 4.61 µM [activator, full curve] |  |
| COc1ccccc1-c1cc(C(=O)NCCCN2CCOCC2)no1 | inconclusive: 3.26 µM [activator, partial curve] |  |
| CC(C)CC(C(=O)O)N1C(=O)C2C3CC(C2C1=O)C1C(c2ccccc2)c2sc(=O)[nH]c2SC31 (stereo not drawn) | inconclusive: 23.1 µM [activator, partial curve, poor fit] |  |
| CC1CCCN(C(=O)c2ccc(Cl)c(S(=O)(=O)N3CCCCCC3)c2)C1 (stereo not drawn) | inconclusive: 9.2 µM [activator, partial curve, poor fit] |  |
| CC(C)(C)c1ccc(C(O)CCCN2CCC(C(O)(c3ccccc3)c3ccccc3)CC2)cc1 (stereo not drawn) | inconclusive: 29.1 µM [inhibitor, single point] |  |

| Compound | Potency | activity change, negative = inhibition |
| --- | --- | --- |
| COc1cc(C2Nc3ccc4ncccc4c3C3=C2C(=O)CC(C)(C)C3)cc(OC)c1O (stereo not drawn) | inconclusive: 18.4 µM [activator, partial curve, poor fit] |  |
| C=CC[C@H](CC(=O)N(CCO)Cc1ccccc1)C(=O)NCCOC(=O)[C@@H](CC=C)Cc1ccc(F)cc1 | inconclusive: 18.3 µM [inhibitor, single point] |  |
| Cc1ccc(Nc2ccccc2)nn1 | inconclusive: 20.6 µM [activator, single point] |  |
| COc1cccc(NC(=O)CN(C)S(=O)(=O)c2ccc3c(c2)NC(=O)CS3)c1 | inconclusive: 20.6 µM [inhibitor, single point] |  |
| COc1c(C)cc(C(=O)C2CCCN(C(=O)c3cc4nc(C)cc(C)n4n3)C2)cc1C (stereo not drawn) | inconclusive: 29.1 µM [inhibitor, single point] |  |
| O=C(NCCc1ccccc1)C1CCN(S(=O)(=O)N2CCC3(CC2)OCCO3)CC1 |  | inactive: -5.52% |
| COc1cccc(CN2CCSCC2)c1 |  | inactive: -0.0311% |
| CCOC(=O)c1c(S(=O)(=O)Nc2ccc(F)cc2Cl)c(C)n(C)c1C |  | inactive: 3.89% |
| COc1ccc(OCC(O)Cn2c(Nc3ccccc3)nc3c2c(=O)n(C)c(=O)n3C)cc1 (stereo not drawn) | inconclusive: 4.61 µM [inhibitor, full curve] |  |
| O=C(Cc1ccc(Br)cc1)OCC(=O)c1ccc2c(c1)OCCO2 | inconclusive: 23.1 µM [activator, single point] |  |
| CC(=O)c1cccc(NC(=O)c2cnn(-c3ccccc3)c2C)c1 | inconclusive: 2.06 µM [activator, partial curve] |  |
| CC(=O)c1cc2c(s1)-c1cc(F)ccc1OC2 | inconclusive: 32.6 µM [activator, partial curve, poor fit] |  |
| CC1CN(c2ncnc3c2cnn3-c2ccc(Cl)cc2)CC(C)O1 (stereo not drawn) | inconclusive: 2.06 µM [activator, full curve] |  |
| CCOC(=O)c1sc(C)c2c(=O)n(Cc3ccc(Cl)cc3)c(C)nc12 | inconclusive: 29.1 µM [inhibitor, single point] |  |
| Clc1ccccc1C1SCC2Nc3ccccc3CN21 (stereo not drawn) | inconclusive: 1.84 µM [activator, partial curve] |  |
| COc1ccc(-c2csc(CCN3N=C(C)CC3=O)n2)cc1 | inconclusive: 29.1 µM [inhibitor, single point] |  |
| CC(=O)N1CCN(c2ccc(NC(=O)c3ccco3)cc2Cl)CC1 | inconclusive: 23.1 µM [activator, single point] |  |
| COC(=O)C(C)(C)ONC(=O)Nc1ccc(C)cc1 | inconclusive: 18.4 µM [activator, partial curve] |  |
| CN(CCOc1ccc(Cl)cc1)C(=O)c1cc(S(=O)(=O)N2CCOCC2)ccc1N1CCCC1 | inconclusive: 29.1 µM [inhibitor, single point] |  |
| O=C(NCCc1ccccc1)C1CCN(c2nc3ccccc3o2)CC1 | inconclusive: 29.1 µM [inhibitor, single point] |  |
| Cc1cc(C)n(CC(=O)N/N=C/c2cccs2)n1 | inconclusive: 25.9 µM [activator, single point] |  |
| CCOC(=O)N1CCN(c2nc(-c3cccc(OC)c3)cc(C(F)(F)F)n2)CC1 |  | inactive: -24% |

Rewritten as tab-separated lines: part of the list above
Compound	Potency	activity change, negative = inhibition
CCN(CC)S(=O)(=O)c1ccc(C(=O)NCCOC(=O)c2ccc(F)cc2F)cc1		inactive: 0%
O=C(c1ccccc1)N1CCN(CC#Cc2ccccc2)CC1	inconclusive: 23.1 µM [activator, partial curve, poor fit]	
O=C(CCSCCC(=O)Nc1ccccc1F)Nc1ccccc1F		inactive: 6.78%
